According to paper PMC4392834:
No constants are given. Whether binding was seen depends on the method and setting. Binding seen in cells or lysates may run through a third protein. Binding can be weak; no strength is given.

Each binder was assayed against HoxE (VC fusion) (Nematostella) (assay: split reporter; Venus BiFC: VC-Hox and VN-TF co-expressed in live Drosophila embryos with the corresponding Hox-Gal4 driver (abdA-Gal4 for AbdA); epidermis, stage 10-12, quantified at stage 10; affected if equal or lower than 50% of wild type, stronger if 120% or more).

Binder	binding
VN-Biniou (protein, UniProt Q9VS05 1-676) MIKSEEASDRSVMTMDQLGGYYHDPRAHPPFSHPHAHSHPHQHTHTGHPYRAGNLLTGGNYQAMGGGESPTELIDEKPNIGYMELKHYMDATPTATPVSAAQHYSLSALHSMGTPPASSSPIPPYGVLMTAHSAGSASPQSNSKTPTDLPQDLQYASSSTSTAKVQPLQVQLQPLNHQYASTIKYCSNNTILSANDYQLLTSQEQAGQQQPQQLPAQQLQHSPGGGYMSRISTSPSQVISNAHGMPVLNYSSSSSSPAKSLNGSESSPPSQNHLENKVSGSAVVGTGGSSQQDAPSTPDTTKKSGTRRPEKPALSYINMIGHAIKESPTGKLTLSEIYAYLQKSYEFFRGPYVGWKNSVRHNLSLNECFKKLPKGMGVGKPGKGNYWTIDENSAHLFEDEGSLRRRPRGYRSKIKVKPYAGHANGYYASGYGDAGMDNGNYYASPAFASYDYSAAGATGVSPAGGQGFADPWNAHAAHSGSSSVGVGMGVGPLPQYTNISCLAAGGNVNGSATTPPLAHSALGMAPSASSSSSPLGAAATLQSDYAPTASLVAAGYSYATSAGSLDNGLRSISLQQLPGLSSIQHAQAQAQAQAHHHHHQHHASHPSHSHQGHGSMHQNHGTSSTTPPPSQSGGSHGIDHSPIDRKPAYLPPISPPPMMVALNGGGGYYEGLKYAN	binds
VN-Teashirt (protein, UniProt P22265 1-954) MLHEALMLEIYRQALNAGALPTARPRSTESANSSERCPSHDSNSSEHGGGAGSGGVGHRLDAAALSTGVMPGEGPTTLHSSFPAVPQSLPSQPPSMEAYLHMVAAAAQQYGFPLAAAAAAGAGPRLPLPLANEAAAPFKLPPQASPTASSNNSEALDFRTNLYGRAESAEPPASEGEEEEFDDGANNPLDLSVGTRKRGHESEPQLGHIQVKKMFKSDSPPANSVASPSASQLLPGVNPYLAAVAAANIFRAGQFPDWNSKNDLVVDPLEKMSDIVKGGASGMGTKEKMHSSKATTPQAASQPPKSPVQPTPNQNSESGGGSGGGAAGSGAVTKARHNIWQSHWQNKGVASSVFRCVWCKQSFPTLEALTTHMKDSKHCGVNVPPFGNLPSNNPQPQHHHPTPPPPPQNHNLRKHSSGSASNHSPSANVKNAFQYRGDPPTPLPRKLVRGQNVWLGKGVEQAMQILKCMRCGESFRSLGEMTKHMQETQHYTNILSQEQSISIKSGNANANSDAKESHNSLSSEESRTLSAVLTCKVCDKAFNSLGDLSNHMAKNNHYAEPLLQSAGARKRPAPKKREKSLPVRKLLEMKGGSGTTQEDHSNEKTSVQGKPGLGPGGGDKNDAALFAERMRQYITGVKAPEEIAKVAAAQLLAKNKSPELVEQKNGGSAKAAGASSVLSAIEQMFTTSFDTPPRHASLPASSPSNSSTKNTSPVASSILKRLGIDETVDYNKPLIDTNDPYYQHYRYTSSERSGSECSAEARPRLDAPTPEKQQQGGGHDEESSKPAIKQEREAESKPVKMEIKSEFVDEPNEAEETSKMEAAVVNGSATNNNNNIVERSSPKTPSSAASPQTRLLPPRSPAESQRSVTPKSPASSHKSYDGSSEGTKKFPSDSLNALSSMFDSLGSSGAGANSRAKLAAAAAAGGSESPENLTAGGNSLAALRQFCVKKEKTA	binds
VN-Bagpipe (protein, UniProt P22809 1-382) MLNMESAGVSAAMAGLSKSLTTPFSINDILTRSNPETRRMSSVDSEPEPEKLKPSSDRERSISKSPPLCCRDLGLYKLTQPKEIQPSARQPSNYLQYYAAAMDNNNHHHQATGTSNSSAADYMQRKLAYFGSTLAAPLDMRRCTSNDSDCDSPPPLSSSPSESPLSHDGSGLSRKKRSRAAFSHAQVFELERRFAQQRYLSGPERSEMAKSLRLTETQVKIWFQNRRYKTKRKQIQQHEAALLGASKRVPVQVLVREDGSTTYAHMAAPGAGHGLDPALINIYRHQLQLAYGGLPLPQMQMPFPYFYPQHKVPQPIPPPTQSSSFVTASSASSSPVPIPIPGAVRPQRTPCPSPNGQMMSVESGAESVHSAAEDVDENVEID	no binding
VN-Empty spiracles (protein, UniProt P18488 1-494) MTKMIPPVPTAAAAVMMPTPKQKIGFSIESIVGNDVSTAGGNSTPDLSGPQSPPPGERNVPGSPPQTPPATLTLIPGSPPHHLMAPPAHGLPYPHPHAQQQHLQAPHPHPHLSPAQQHVLHQHLLMQQQHPGTPKSHQDIQELLQRLHHNAAMASGLSPLQTRLSPETEQPQMAVSLKRERSPAPPAMEQAENPAQRIQPPHTPPKSVSPQSSQPSSSPTLLISSPHATPPQQQQQQPPPNYPKPAMMHPGGAGPMMMPGMPPAGLVRPFPMGPGGPPMPQGQPGLPDIKALPPYINAPPELPPQHNPHLIAAAQFQMAAALQAGHVLGPAAAAAAAAGLPPHAAQFMPNPGMARDSYQLYPWLLSRHGRIFPHRFPGSFLVPPFRKPKRIRTAFSPSQLLKLEHAFESNQYVVGAERKALAQNLNLSETQVKVWFQNRRTKHKRMQQEDEKGGEGGSQRNMHNGSGDEDDDELIDMEMDECPSDEEHELDASH	no binding
VN-Eyes absent (protein, UniProt Q05201 1-766) MVTLMPYNYAAPRCGLIDKMIEPKVKRPKTDHTDTHERNRLCNLSQQQQQQQPQQQQTHQQQQQQQQQSHQQSHSSTVLASNGPSSAGAGMGVGVGGGGGSGGGVGGGVGQCSPLGLPPQSQPLQPTIGSLASLSGHYSNGNANPNVNSSSCSLATASSFAQSAGSSFSTYQQAGGTSGGVSGEDGVVGGATVMSHWTHDGTGSSAAVKSESRSPGQVHASLDNGSVAGSNLYGCSSASNPLDGGAVAVNSSAVAAAAAAVYDGKHDYYYYNSMQQYTPPPFYSGYGTPYAAATAARQAKMEPGAAAAAAAYLTPSYAASGNNNSQLYSSPYAGYNNFGQQDYGGYYNEQYGNYYSPANYSPYAVSSPSSSASHGHGFHVAASSNLSESPTDTHSTTPVHQTTHSPHSPLPISPSTGSGIGPLGNVSAAAAAAALNSSGGSSVGTAGSGGVATSKTTPTGKTGRARGRRHQQPSPTRSTASDTGNSEAVKPPERVFVWDLDETLIIFHTLLSGSYANRYTKDHSSLMTIAFRMEEMVFNMADTHFFFNEIEECDQVHIDDVSSDDNGQDLSAYNFATDGFHTNTPPGAPPNLCLPTGVRGGVDWMRKLAFRYRKIKDIYNSYRGNVGTLLGPGKREAWLQIRSEIEVATDNWATLALKCLSMISQRENCVNVLVTSTQLAPALAKVLLFGLGGIFNIENIYSAHKIGHETCYERIVTRFGRKSTYVVIGDGNEEETAAKAMNFPFWRISAHSDIRALYTALDMGFL	no binding
VN-Kn (protein, UniProt P56721 1-575) MEWGRKLYPSAVSGPRSAGGLMFGLPPTAAVDMNQPRGPMTSLKEEPLGSRWAMQPVVDQSNLGIGRAHFEKQPPSNLRKSNFFHFVIALYDRAGQPIEIERTAFIGFIEKDSESDATKTNNGIQYRLQLLYANGARQEQDIFVRLIDSVTKQAIIYEGQDKNPEMCRVLLTHEVMCSRCCDKKSCGNRNETPSDPVIIDRFFLKFFLKCNQNCLKNAGNPRDMRRFQVVISTQVAVDGPLLAISDNMFVHNNSKHGRRAKRLDTTEGTGNTSLSISGHPLAPDSTYDGLYPPLPVATPCIKAISPSEGWTTGGATVIIVGDNFFDGLQVVFGTMLVWSELITSHAIRVQTPPRHIPGVVEVTLSYKSKQFCKGSPGRFVYVSALNEPTIDYGFQRLQKLIPRHPGDPEKLQKEIILKRAADLVEALYSMPRSPGGSTGFNSYAGQLAVSVQDGSGQWTEDDYQRAQSSSVSPRGGYCSSASTPHSSGGSYGATAASAAVAATANGYAPAPNMGTLSSSPGSVFNSTSMSAVSSTWHQAFVQHHHAATAHPHHHYPHPHQPWHNPAVSAATAAAV	no binding
VN-Pan (protein, UniProt P91943 1-751) MPHTHSRHGSSGDDLCSTDEVKIFKDEGDREDEKISSENLLVEEKSSLIDLTESEEKGHKISRPDHSPVFNKLDTHAPSFNMGYLVSPYSYANGSPSGLPVTMANKIGLPPFFCHNADPLSTPPPAHCGIPPYQLDPKMGLTRPALYPFAGGQYPYPMLSSDMSQVASWHTPSVYSASSFRTPYPSSLPINTTLASDFPFRFSPSLLPSVHATSHHVINAHSAIVGVSSKQECGVQDPTTNNRYPRNLEAKHTSNAQSNESKETTNDKKKPHIKKPLNAFMLYMKEMRAKVVAECTLKESAAINQILGRRWHELSREEQSKYYEKARQERQLHMELYPGWSARDNYGYVSKKKKRKKDRSTTDSGGNNMKKCRARFGLDQQSQWCKPCRRKKKCIRYMEALNGNGPAEDGSCFDEHGSQLSDDDEDDYDDDKLGGSCGSADETNKIEDEDSESLNQSMPSPGCLSGLSSLQSPSTTMSLASPLNMNANSATNVIFPASSNALLIVGADQPTAQQRPTLVSTSGSSSGSTSSISTTPNTSSTVSPVTCMTGPCLGSSQERAMMLGNRFSHLGMGLSPPVVSTSTSKSEPFFKPHPTVCNNPIFALPSIGNCSLNISSMPNTSRNPIGANPRDINNPLSINQLTKRREYKNVELIEASESKTIVAHAATSIIQHVAVNGYHANHSLLNSNLGHLHHQLNNRTENPNRSEQTMLSVSNHSVNSSECHKESDSQAIVSSNPPNAGSSDNGVISVS	no binding
VN-Mef2 (protein, UniProt P40791 1-540) MGRKKIQISRITDERNRQVTFNKRKFGVMKKAYELSVLCDCEIALIIFSSSNKLYQYASTDMDRVLLKYTEYNEPHESLTNKNIIEKENKNGVMSPDSPEAETDYTLTPRTEAKYNKIDEEFQNMMQRNQMAIGGAGAPRQLPNSSYTLPVSVPVPGSYGDNLLQASPQMSHTNISPRPSSSETDSGGMSLIIYPSGSMLEMSNGYPHSHSPLVGSPSPGPSPGIAHHLSIKQQSPGSQNGRASNLRVVIPPTIAPIPPNMSAPDDVGYADQRQSQTSLNTPVVTLQTPIPALTSYSFGAQDFSSSGVMNSADIMSLNTWHQGLVPHSSLSHLAVSNSTPPPATSPVSIKVKAEPQSPPRDLSASGHQQNSNGSTGSGGSSSSTSSNASGGAGGGGAVSAANVITHLNNVSVLAGGPSGQGGGGGGGGSNGNVEQATNLSVLSHAQQHHLGMPNSRPSSTGHITPTPGHDKYEGYPYRALMGHNPRWNLNFAGAPSSDQDVRLAAVAVQQQQQQPHQQQQLGDYDAPNHKRPRISGGWGT	no binding
